Results reported in PubChem BioAssay AID445 (National Center for Advancing Translational Sciences (NCATS), 2006).
The list shows a part of the results. Shown are side measurements of this screen, not its main read-out; they come without a call. Compounds called inactive in the main read-out are mostly missing here. Potencies come from curve fits of mixed quality, noted in brackets.

Experiment: IkB Signaling
Conditions: ABC-DLBCL IkBa-CBG/CBR dual luciferase ratio (green luciferase fused to IkBa over red control in OCI-Ly3 lymphoma cells), 4 h; measured here: control luc red channel unless noted
From the text: NIH Molecular Libraries Screening Centers Network [MLSCN]
NIH Chemical Genomics Center [NCGC]
Nuclear factor kappa-B (NF-kappa-B) plays an important role in normal B cell development and survival. Diffuse large B cell lymphoma (DLBCL) is the most commonly observed type of non-Hodgkin's lymphoma. Gene expression analysis has identified an activated B cell-like subtype of DLBCL (ABC-DLBCL) which expresses known NF-kappa-B target genes. […] However, targets upstream of IKK have been largely unexplored and so nodes upstream of IKK in the NF-kappa-B pathway remain untested due to the lack of chemical probes.
A cell-sensor assay for I-kappa-B-alpha stabilization was developed with NIH investigator Dr. R. Eric Davis in Dr. Louis M. Staudt's laboratory. The assay uses green (CBG68) and red (CBR) emitting beetle luciferases [Chroma-Glo(TM) developed by Promega Corp.] where the green luciferase is fused to I-kappa-B-alpha and the red luciferase is present in its native state. Both luciferase genes are stably present in the OCI-Ly3 human ABC DLBCL cell line, but their expression is under the control of tetracycline-inducible promoters. Following the addition of doxycycline to induce expression of the luciferases, the green luminescence in control cultures rises only slowly because the CBG fusion partner I-kappa-B-alpha is targeted by IKK activity for rapid degradation. In contrast, green luminescence rises rapidly in the presence of proteasome inhibitors or IKK inhibitors. The rise in red luminescence of CBR is not affected by proteasome or IKK inhibitors, and serves as normalization for cell number and nonspecific effects. Compounds were screened as a concentration-titration series that ranged from 57 uM to 0.7 nM.
NCGC Assay Protocol Summary:
Cells were seeded in 1536-well plates at 5000 cells/3ul in IMDM medium containing 0.5% FBS, w/o phenol red, L-glutamine, 25 mM HEPES, 3 mg/ml sodium bicarbonate. After centrifugation for 1 min. at 1000 rpm, 23 nl of compounds or DMSO were delivered to each well using a pin tool. Then 1ul 80ng/ml doxycycline was dispensed into white solid 1536-well plates and the plates were incubated at 37C/5% C02 in a cell incubator for 4 hrs. Then 4 ul Chroma-Glo luminescent substrate mix (Promega) was added to each well. The plate was incubated at R.T. for 10-15 min. The plates were measured on a ViewLux plate reader for green luminescence (540/20 nm filter) and red luminescence (618/8 nm filter). The green and red luminescent signals were corrected for red and green luminescence filter overlap using previously determined filter calibration constants (determined using the procedure outlined in the Promega Technical Manual). The %Activity was determined from the ratio of corrected green/red luminescent values. Green luminescent and ratio %Activity was determined by normalizing to the difference in signal between basal cells (0% Activity) and cells incubated with 10 uM of the proteasome inhibitor MG-132 (100% Activity). Red luminescent %Activity was normalized to the difference between red luminesence in basal cells (0%Activity) and zero luminescence (-100% Activity).
Concentration-response curves were fitted to the signals arising from the green luminescence (I-kappa-B-alpha-luciferase fusion; IkB-luc) and the red luminescence (unfused luciferase; luc) as well as the calculated ratio. The concentration-effect curves were then classified based on curve quality (r2), response magnitude and degree of measured activity. Compounds were then categorized based on their concentration-response curves for all three datasets (Ikb-luc, luc and ratio).
Keywords: IKK, I-kappa-B, IkB, IkBa, cytotoxicity, luminescence, MLSMR, MLSCN, NIH Roadmap, qHTS, NCGC

| SMILES | AC50 |
| --- | --- |
| CC(Nc1ccc(-c2nc(-c3ccco3)no2)cc1[N+](=O)[O-])c1ccccc1 (stereo not given) | 6.31 µM [rising, partial curve, poor fit] |
| CC(C)(C)C(=O)Nc1cccc(C(=O)OCc2cc(=O)n3nc(C4CC4)sc3n2)c1 | 12.6 µM [falling, partial curve] |
| COc1cc(NC(=O)c2cc3ccc4cccnc4c3[nH]2)cc(OC)c1OC | 1 µM [falling, full curve] |
| CCOC(=O)c1ccc(NC(=O)CSc2nc(-c3cccs3)cc(C(F)(F)F)c2C#N)cc1 | 0.158 µM [falling, full curve, poor fit] |
| COC(=O)CN1C(=O)CSc2ccc(S(=O)(=O)Nc3c(C)cc(C)cc3C)cc21 | 31.6 µM [falling, partial curve, poor fit] |
| CCS(=O)(=O)c1nc(S(=O)(=O)c2ccc(C)cc2)c(NCC(C)C)s1 | 20 µM [falling, single point] |
| CCOC(=O)N1CCc2c(sc(NCc3sccc3C)c2C(=O)Nc2cc(Cl)ccc2OC)C1 | 12.6 µM [falling, partial curve, poor fit] |
| O=C1CN(C(=O)COc2ccc(Cl)cc2)C(c2ccc(F)cc2)c2cc(Br)ccc2N1 (stereo not given) | 12.6 µM [falling, partial curve] |
| CC(=O)C1=C(c2ccc(Cl)c(Cl)c2)N(C(C)=O)n2cnnc2S1 | 25.1 µM [falling, partial curve] |
| Cc1ccc(NC(=O)N2CCN(Cc3nc4ccc(C)cc4o3)CC2)c(Cl)c1 | 31.6 µM [falling, single point] |
| COc1cc(OC)cc(C(=O)Nc2ccc3c(c2)OCCO3)c1 | 20 µM [falling, partial curve] |
| COc1ccc(-c2nc3sc(CCNC(=O)C(=O)Nc4ccc(C)c(F)c4)c(C)n3n2)cc1 | 10 µM [falling, partial curve] |
| CCc1ccc(S(=O)(=O)c2cn(C)c3cc(F)c(F)cc3c2=O)cc1 | 31.6 µM [falling, single point] |
| CCOc1ccc(NC(=O)Cn2c(=O)n(Cc3ccco3)c(=O)c3ccc(C(=O)NC4CCCC4)cc32)cc1 | 39.8 µM [rising, single point] [measured here: IkB-luc green channel] |
| O=C1CC(c2cccc(Cl)c2Cl)c2cc3c(cc2N1)OCCO3 (stereo not given) | 31.6 µM [falling, partial curve] |
| CC(=O)c1ccc(N2CCN(c3nc4ccccc4c4nc(-c5cccc(C)c5)nn34)CC2)cc1 | 0.316 µM [rising, full curve, poor fit] |
| O=C(C1CCCN(S(=O)(=O)c2ccc(Cl)cc2)C1)N(Cc1cccs1)C1CC1 (stereo not given) | 39.8 µM [falling, single point] |
| CCc1cc(-c2[nH]ncc2-c2ccc3c(c2)OCO3)c(O)cc1O | 10 µM [falling, partial curve] |
| Cc1oc(-c2ccccc2Cl)nc1CS(=O)CC(=O)NCc1ccccc1Cl (stereo not given) | 3.98 µM [falling, single point] |
| CCOC(=O)c1ccc(NC(=O)COc2cccc3c(=O)n(C)ccc23)cc1 | 20 µM [falling, single point] |
| Cc1cc(Cl)ccc1OCC(=O)N1CCC(c2nc3ccccc3o2)CC1 | 25.1 µM [falling, partial curve] |
| CCOc1ccc(NC(=O)N2CCC(c3ccc(C)cc3)C2)cc1 (stereo not given) | 3.98 µM [rising, single point] |
| COc1ccccc1CNC(=O)CSCc1nc(-c2ccc(OC)c(OC)c2)oc1C | 31.6 µM [falling, single point] |
| CCCCNC(=O)c1sc(=S)n2c1[nH]c(=O)c1ccccc12 | 5.01 µM [falling, full curve] |
| O=C(Nc1cccc(C(=O)OCc2cc(=O)n3c4c(sc3n2)CCCC4)c1)c1cccc(Cl)c1 | 1 µM [falling, full curve] |
| Cc1nc(-c2ccc(S(=O)(=O)N(Cc3ccccc3)C(C)C)cc2)co1 | 15.8 µM [falling, partial curve] |
| CCOc1ccc(CCNC(=O)c2ccc3c(c2)nc2n3CCOC2)cc1OCC | 3.16 µM [rising, partial curve, poor fit] |
| CC(C)OCCCNC(=O)CCCn1c(SCC(N)=O)nc2c(sc3ccccc32)c1=O | 0.01 µM [falling, full curve, poor fit] |
| COc1ccccc1N1CCN(C(=O)c2ccc3nc(-c4ccco4)c(-c4ccco4)nc3c2)CC1 | 10 µM [falling, partial curve] |
| O=C(CCS(=O)(=O)c1nc(-c2cccs2)cc(C(F)(F)F)n1)Nc1ccc(F)c(Cl)c1 | 3.16 µM [falling, full curve] |

2 compounds drawn at random from those above, as already listed:

| SMILES | AC50 |
| --- | --- |
| COC(=O)CN1C(=O)CSc2ccc(S(=O)(=O)Nc3c(C)cc(C)cc3C)cc21 | 31.6 µM [falling, partial curve, poor fit] |
| CC(Nc1ccc(-c2nc(-c3ccco3)no2)cc1[N+](=O)[O-])c1ccccc1 (stereo not given) | 6.31 µM [rising, partial curve, poor fit] |
